Patent US20130131075A1, “NEW COMPOUNDS” (Boehringer Ingelheim International GmbH, priority 2009, published 2013)

Target: T1, cynomolgus BK1-receptor (Macaca fascicularis, UniProt Q3BCU0)
T1 construct: expressed in transfected cells; host or cells: CHO cells (homogenate)
T1 sequence (Q3BCU0 1-352): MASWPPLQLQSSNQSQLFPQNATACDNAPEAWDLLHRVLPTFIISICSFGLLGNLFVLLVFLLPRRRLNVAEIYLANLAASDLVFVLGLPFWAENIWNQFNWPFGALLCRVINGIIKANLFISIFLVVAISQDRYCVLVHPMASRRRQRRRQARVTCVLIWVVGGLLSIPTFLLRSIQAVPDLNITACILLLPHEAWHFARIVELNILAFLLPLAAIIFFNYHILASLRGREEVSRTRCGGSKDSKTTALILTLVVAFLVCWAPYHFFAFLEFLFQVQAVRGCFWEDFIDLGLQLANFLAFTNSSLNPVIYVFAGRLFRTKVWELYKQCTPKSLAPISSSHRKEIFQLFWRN
Experiment: cynoBK1-receptor binding assay
Conditions: CHO cells expressing cynomolgus BK1-receptor, radioligand kallidine (DesArg10,Leu9)
Description: Description of the Method of Binding the cynoBK1-Receptor
CHO cells that express the cynomolgus BK1-receptor are cultivated in “HAM'S F-12 Medium”. The medium is removed from confluent cultures, the cells are washed with PBS buffer, scraped off or detached using Versene and isolated by centrifuging. Then the cells are homogenised in suspension, the homogenate is centrifuged and resuspended. After the protein content has been determined 200 μl of the homogenate (50 to 250 μg protein/assay) are incubated for 60-180 minutes at ambient temperature with 0.5 to 5.0 nM kallidine (DesArg10,Leu9), [3,4-Prolyl-3,43H(N)] and increasing concentrations of the test substance in a total volume of 250 μl. The incubation is stopped by rapid filtration through GF/B glass fibre filters that have been pre-treated with polyethyleneimine (0.3%). The radioactivity bound to the protein is measured with a TopCount NXT. The radioactivity bound in the presence of 1.0 μM kallidine (DesArg10) is defined as non-specific binding. The concentration binding curve may be analysed using computer-aided non-linear curve fitting to determine the corresponding Ki value for the test substance.
Test results of the cynoBK1-receptor binding assay: […]

- Ki: 0.6 nM
- inhibition at 10 µM (at 10 μgmol/L): 101%
Structure (SMILES): CSc1ccc(Nc2ccc(CNC(=O)C3(NC(=O)c4cncnc4)CC3)cc2)c(C(F)(F)F)c1 [(28)]
